This note sets out measurements from patent CN115772221A.

The chains behind the UniProt entries cited, without tags or fusion partners. Residues count along the entry.
UniProt Q08722, residues 19-323: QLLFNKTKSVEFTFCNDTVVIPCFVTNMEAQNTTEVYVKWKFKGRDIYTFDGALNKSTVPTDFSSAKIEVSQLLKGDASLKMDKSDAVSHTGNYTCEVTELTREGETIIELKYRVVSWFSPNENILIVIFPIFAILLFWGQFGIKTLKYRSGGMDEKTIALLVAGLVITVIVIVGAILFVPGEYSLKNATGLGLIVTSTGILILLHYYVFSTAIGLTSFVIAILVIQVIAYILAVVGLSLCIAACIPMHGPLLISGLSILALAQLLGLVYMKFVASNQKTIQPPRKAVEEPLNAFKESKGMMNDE

These are yes or no findings as the source states them, for the method shown. Some entries that bind do so weakly or less than the wild type.

Assay [1] deals with 人CD47 (表面过表达人CD47的293F细胞) (human) (UniProt Q08722). Nature of the assay: flow cytometry on 293F cells overexpressing human CD47.
Assay [2] concerns the target 食蟹猴CD47-his蛋白 (ACRO biosystems, cat#CD7-C52H1, MW 15.8 kDa) (cynomolgus monkey). Nature of the assay: capture ELISA, antibody captured by goat anti-mouse IgG Fcγ, biotinylated cynomolgus CD47 at 60 nM.

B1: 小鼠抗CD47单克隆抗体1D2 (antibody, V domains shown)
VH: EVQLQQSGPELVKPGASVRISCKTSGYKFTDYNIHWVKQSHGKSLEYIGYIYPYNISSAYNQKFKSKATVTVDNSSSTSYMELRSLTSEDSAVYYCARGGWRAMDYWGQGTSVTVSS
VL: AVLMTQSPLSLPVSLGDQASLSCRSSQNIVHTNGYTYLAWYLQRPGQSPKLLIYKVSNRFSGVPDRFSGSGSGTDFTLRISRVEAEDLGVYYCFQGSHVPWTFGGGTKLEIK
For the molecule B1, the binding result in assay [1] and in assay [2] was “binds” throughout.
